From PubChem BioAssay AID2810 (NMMLSC, 2010)
This is one part of the list. Shown are side measurements of this screen, not its main read-out; they come without a call.

Assay: modulators of CD8 T cell-vesicle binding, confirmation, cherry-picked primary hits, two concentrations (AID 2810);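 note: lower values mean blocking of vesicle binding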;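 for percent response (vesicle binding): ratio of mean FL2 vesicle stain of CD8+ cells to that row's control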
Conditions: 2C CD8+ T cell-vesicle binding, flow cytometry; for double positive events: CD8+/vesicle+ events
[1] = at 15.4 µM, stronger effect = lower value

| Structure (SMILES) | double positive events (at 7.7 µM) | double positive events [1] | percent response (vesicle binding) (at 7.7 µM) |
| --- | --- | --- | --- |
| COc1nc(Nc2ccc(C(C)C)cc2)nc(OC)n1 | 12% | 26.9% | 234% |
| COc1ccc(C(=O)C2CCN(C(=S)NCCc3ccc(OC)c(OC)c3)CC2)cc1 | 12.3% | 26.6% | 215% |
| O=C(Nc1ccc2nc(-c3ccco3)c(-c3ccco3)nc2c1)N1CCN(c2ccccn2)CC1 | 9% | 10.2% | 470% |
| COc1ccc(C(=O)Nc2ccccc2C(=O)O)cc1Cl | 9.6% | 13.5% | 158% |
| COc1ccc(Nc2nc(C)cc(C)c2C#N)c(OC)c1 | 6% | 20% | 103% |
| Cc1ccc(NC(=O)CC2OC(=O)c3ccccc32)cc1S(=O)(=O)N1CCOCC1 (stereo not given) | 12% | 25.5% | 425% |
| CCOC(=O)c1ccc(CNC(=O)Cn2nnc(-c3ccccc3F)n2)o1 | 8.9% | 19.8% | 338% |
| CSCCC(NS(=O)(=O)c1cccc(C(F)(F)F)c1)C(=O)N(C)Cc1ccc2c(c1)OCCO2 (stereo not given) | 13% | 30.3% | 548% |
| COc1ccc([C@H](NC(=O)OC(C)(C)C)C(=O)OC(C)(C)C)cc1 | 33.8% | 18.2% | 180% |
| CCC(C)S(=O)(=O)c1snnc1C (stereo not given) | 5.3% | 5.6% | 208% |
| Cc1ccc(NC(=O)c2cc(-c3ccccc3)nn2-c2ccccc2)cc1 | 10.4% | 12.6% | 404% |
| O=C(CO)N/N=C/c1cccc(Cl)c1Cl | 23% | 12% | 300% |
| O=S(=O)(Nc1ncccn1)c1ccc(Nc2ncnc3ccccc23)cc1 | 18% | 31.8% | 245% |
| COC(=O)c1c(-c2ccc(OC)cc2)sc2ccccc12 | 7.4% | 23.3% | 75.9% |
| Cn1c(CNC(=O)CNC(=O)c2ccc(F)cc2)cc(=O)n(C)c1=O | 21.2% | 3.9% | 126% |
| CCOc1cc(CNC2CCCC2)cc(Cl)c1OCc1ccc(F)cc1 | 33.6% | 13.5% | 242% |
| CC(=O)N1CCN(C(=O)c2ccc(Cl)c(S(=O)(=O)N3CCc4ccccc43)c2)CC1 | 11.7% | 27.5% | 329% |
| CCCOc1ccc(CSc2n[nH]c(C)n2)cc1 | 14.2% | 22.2% | 371% |
| CC(=O)c1ccc(NC(=O)COC(=O)Cn2cnc3ccccc32)cc1 | 25.1% | 22.3% | 198% |
| Cc1cccc(N/N=C(\C(N)=O)C2=NC(C)(C)Cc3ccccc32)c1 | 23.5% | 21% | 334% |
| O=C(CN1C(=O)NC2(CCCCCC2)C1=O)N1CCN(c2ccccc2)CC1 | 15.7% | 28.4% | 166% |

| Structure (SMILES) | double positive events (at 7.7 µM) | double positive events [1] | percent response (vesicle binding) (at 7.7 µM) |
| --- | --- | --- | --- |
| COc1ccc(-n2cc(CNCCc3cscn3)c(-c3ccccc3Cl)n2)cc1 | 18.3% | 36.4% | 241% |
| CN(C)S(=O)(=O)c1ccc(N2CCCC2)c(C(=O)NCC(=O)Nc2ccc(F)c(F)c2)c1 | 10.6% | 3.8% | 382% |
| COc1ccc2c(c1)C1NC(=S)NC(C)(O2)C1C(=O)Nc1ccc(Cl)cc1 (stereo not given) | 7.2% | 4.6% | 152% |
| CCOc1ccc2[nH]c(=O)c(CN(Cc3nnnn3Cc3ccccc3)CC3CCCO3)cc2c1 (stereo not given) | 18.6% | 17.6% | 241% |
| COc1cccc(-n2c(CN3CCN(c4ccc(C)cc4)C(C)C3)nc3ccc([N+](=O)[O-])cc3c2=O)c1 (stereo not given) | 5.4% | 10.8% | 71.2% |
| Cc1nc(CNC(=O)C2CCC(=O)N(CCc3ccc(Cl)cc3)C2)sc1C (stereo not given) | 39.2% | 19.2% | 389% |
| Cc1cc(Cl)c(OCCCN2CCCCC2)c(Br)c1 | 12% | 29.3% | 336% |
| Cc1ccc(C(=O)NC(=S)Nc2ccc(NC(=O)c3cccs3)cc2)cc1[N+](=O)[O-] | 29.7% | 40.7% | 767% |
| Cc1ccc2c(=O)n3c(nc2c1)C(Cc1ccccc1)NC(=O)c1cc(Cl)ccc1-3 (stereo not given) | 8.1% | 24.3% | 320% |
| CCN1CCN(c2ccc(S(=O)(=O)N3CCOCC3)cc2NC(=O)/C=C/c2ccc(C)cc2)CC1 | 11.1% | 30.4% | 161% |
| CCN1CCCC1Cn1cnc2c([nH]c3ccc(C)cc32)c1=O (stereo not given) | 17.8% | 11.8% | 279% |
| CCOCc1nnc(NC(=O)c2ccco2)s1 | 25.9% | 29.1% | 263% |
| CN1CCc2c(sc3c2c(NCc2ccco2)nc2nnnn23)C1 | 11.2% | 44.3% | 436% |
| O=C(Cc1coc2cc(O)ccc12)NNC(=O)c1cccs1 | 14.7% | 27.5% | 184% |
| Cc1nc2ccc(Br)cc2c2c1CC(CBr)O2 (stereo not given) | 27.3% | 16% | 271% |
| Cc1ccc(NC(=O)c2ccccc2N(C)S(=O)(=O)c2ccccc2)c(C)c1 | 13% | 38.9% | 92.6% |
| O=C(N/N=C/c1sc2ccccc2c1O)c1ccccc1 | 37.5% | 20.4% | – |
| COc1ccc2c(=O)c(C(=O)NCc3ccccc3)c[nH]c2c1 | 12.8% | 15.9% | 145% |
| O=S(=O)(Nc1cccc(-c2cn3c(n2)SCC3)c1)c1ccc(F)cc1F | 21.9% | 31.7% | 225% |
| CS(=O)(=O)N(Cc1ccc(Cl)cc1)c1ccc(C(=O)NCCSc2ccccn2)cc1 | 31% | 23.1% | 421% |
| C[C@@H]1CCC(=O)N(CC[C@H](Sc2ccc(Br)cc2)c2ccccc2)CC1 | 16.3% | 9.5% | 330% |

Complete entries as entered above.
`CCN1CCN(c2ccc(S(=O)(=O)N3CCOCC3)cc2NC(=O)/C=C/c2ccc(C)cc2)CC1` in the list: double positive events (at 7.7 µM): 11.1%; double positive events [1]: 30.4%; percent response (vesicle binding) (at 7.7 µM): 161%
`CN1CCc2c(sc3c2c(NCc2ccco2)nc2nnnn23)C1` in the list: double positive events (at 7.7 µM): 11.2%; double positive events [1]: 44.3%; percent response (vesicle binding) (at 7.7 µM): 436%
